# Source: the supplement of paper PMC8728848
# This is one part of the list.
# How the values were obtained:
# Test in all cases: glycan array binding signal (z-score within array); higher = stronger binding
# Conditions in all cases: glycan notation: IUPAC condensed, linker removed
# [1] = molecular target: Gal(b1-4)GlcNAc(b1-2)[Gal(b1-4)GlcNAc(b1-6)]Man(a1-6)[GlcNAc(b1-4)][Gal(b1-4)GlcNAc(b1-2)Man(a1-3)]Man(b1-4)GlcNAc(b1-4)GlcNAc
# In short: (§1)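 Negative Z-scores can be read as non-binding. The Z-score is calculated within each array and then averaged across arrays of one protein sequence at different concentrations or buffers and across linkers. Arrays, 3228 in all, were curated from the Consortium for Functional Glycomics database and kept only where the protein sequence was available.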
# [2] = molecular target: Gal(b1-4)GlcNAc(b1-2)[Gal(b1-4)GlcNAc(b1-6)]Man(a1-6)[GlcNAc(b1-4)][Gal(b1-4)GlcNAc(b1-2)[Gal(b1-4)GlcNAc(b1-4)]Man(a1-3)]Man(b1-4)GlcNAc(b1-4)[Fuc(a1-6)]GlcNAc
# In short: as §1
# [3] = molecular target: Gal(b1-4)GlcNAc(b1-3)Gal(b1-3)GalNAc
# In short: as §1
# [4] = molecular target: Gal(b1-4)GlcNAc(b1-3)Gal(b1-3)GlcNAc
# In short: as §1
# [5] = molecular target: Gal(b1-4)GlcNAc(b1-3)Gal(b1-4)Glc
# In short: as §1
# [6] = molecular target: Gal(b1-4)GlcNAc(b1-3)Gal(b1-4)GlcNAc
# In short: as §1
# [7] = molecular target: Gal(b1-4)GlcNAc(b1-3)Gal(b1-4)GlcNAc(b1-2)Man(a1-3)[Gal(b1-4)GlcNAc(b1-3)Gal(b1-4)GlcNAc(b1-2)Man(a1-6)]Man(b1-4)GlcNAc(b1-4)GlcNAc
# In short: as §1
# [8] = molecular target: Gal(b1-4)GlcNAc(b1-3)Gal(b1-4)GlcNAc(b1-2)Man(a1-3)[Gal(b1-4)GlcNAc(b1-3)Gal(b1-4)GlcNAc(b1-2)Man(a1-6)]Man(b1-4)GlcNAc(b1-4)[Fuc(a1-6)]GlcNAc
# In short: as §1
# [9] = molecular target: Gal(b1-4)GlcNAc(b1-3)Gal(b1-4)GlcNAc(b1-2)[Gal(b1-4)GlcNAc(b1-3)Gal(b1-4)GlcNAc(b1-6)]Man(a1-6)[Gal(b1-4)GlcNAc(b1-3)Gal(b1-4)GlcNAc(b1-2)Man(a1-3)]Man(b1-4)GlcNAc(b1-4)GlcNAc
# In short: as §1
# [10] = molecular target: Gal(b1-4)GlcNAc(b1-3)Gal(b1-4)GlcNAc(b1-2)[Gal(b1-4)GlcNAc(b1-3)Gal(b1-4)GlcNAc(b1-6)]Man(a1-6)[Gal(b1-4)GlcNAc(b1-3)Gal(b1-4)GlcNAc(b1-2)Man(a1-3)]Man(b1-4)GlcNAc(b1-4)[Fuc(a1-6)]GlcNAc
# In short: as §1
# [11] = molecular target: Gal(b1-4)GlcNAc(b1-3)Gal(b1-4)GlcNAc(b1-3)Gal(b1-4)GlcNAc
# In short: as §1
# [12] = molecular target: Gal(b1-4)GlcNAc(b1-3)Gal(b1-4)GlcNAc(b1-3)Gal(b1-4)GlcNAc(b1-2)Man(a1-3)[Gal(b1-4)GlcNAc(b1-3)Gal(b1-4)GlcNAc(b1-3)Gal(b1-4)GlcNAc(b1-2)Man(a1-6)]Man(b1-4)GlcNAc(b1-4)GlcNAc
# In short: as §1
# [13] = molecular target: Gal(b1-4)GlcNAc(b1-3)Gal(b1-4)GlcNAc(b1-3)Gal(b1-4)GlcNAc(b1-2)Man(a1-3)[Gal(b1-4)GlcNAc(b1-3)Gal(b1-4)GlcNAc(b1-3)Gal(b1-4)GlcNAc(b1-2)Man(a1-6)]Man(b1-4)GlcNAc(b1-4)[Fuc(a1-6)]GlcNAc
# In short: as §1
# [14] = molecular target: Gal(b1-4)GlcNAc(b1-3)Gal(b1-4)GlcNAc(b1-3)Gal(b1-4)GlcNAc(b1-2)[Gal(b1-4)GlcNAc(b1-3)Gal(b1-4)GlcNAc(b1-3)Gal(b1-4)GlcNAc(b1-6)]Man(a1-6)[Gal(b1-4)GlcNAc(b1-3)Gal(b1-4)GlcNAc(b1-3)Gal(b1-4)GlcNAc(b1-2)Man(a1-3)]Man(b1-4)GlcNAc(b1-4)[Fuc(a1-6)]GlcNAc
# In short: as §1
# [15] = molecular target: Gal(b1-4)GlcNAc(b1-3)Gal(b1-4)GlcNAc(b1-3)Gal(b1-4)GlcNAc(b1-3)Gal(b1-4)GlcNAc(b1-2)Man(a1-3)[Gal(b1-4)GlcNAc(b1-3)Gal(b1-4)GlcNAc(b1-3)Gal(b1-4)GlcNAc(b1-3)Gal(b1-4)GlcNAc(b1-2)Man(a1-6)]Man(b1-4)GlcNAc(b1-4)GlcNAc
# In short: as §1
# [16] = molecular target: Gal(b1-4)GlcNAc(b1-3)Gal(b1-4)GlcNAc(b1-3)Gal(b1-4)GlcNAc(b1-3)Gal(b1-4)GlcNAc(b1-2)Man(a1-3)[Gal(b1-4)GlcNAc(b1-3)Gal(b1-4)GlcNAc(b1-3)Gal(b1-4)GlcNAc(b1-3)Gal(b1-4)GlcNAc(b1-2)Man(a1-6)]Man(b1-4)GlcNAc(b1-4)[Fuc(a1-6)]GlcNAc
# In short: as §1
# [17] = molecular target: Gal(b1-4)GlcNAc(b1-3)Gal(b1-4)GlcNAc(b1-3)Gal(b1-4)GlcNAc(b1-3)Gal(b1-4)GlcNAc(b1-2)[Gal(b1-4)GlcNAc(b1-3)Gal(b1-4)GlcNAc(b1-3)Gal(b1-4)GlcNAc(b1-3)Gal(b1-4)GlcNAc(b1-6)]Man(a1-6)[Gal(b1-4)GlcNAc(b1-3)Gal(b1-4)GlcNAc(b1-3)Gal(b1-4)GlcNAc(b1-3)Gal(b1-4)GlcNAc(b1-2)Man(a1-3)]Man(b1-4)GlcNAc(b1-4)[Fuc(a1-6)]GlcNAc
# In short: as §1
# [18] = molecular target: Gal(b1-4)GlcNAc(b1-3)Gal(b1-4)GlcNAc(b1-3)Gal(b1-4)GlcNAc(b1-3)Gal(b1-4)GlcNAc(b1-3)Gal(b1-4)GlcNAc(b1-2)Man(a1-3)[Gal(b1-4)GlcNAc(b1-3)Gal(b1-4)GlcNAc(b1-3)Gal(b1-4)GlcNAc(b1-3)Gal(b1-4)GlcNAc(b1-3)Gal(b1-4)GlcNAc(b1-2)Man(a1-6)]Man(b1-4)GlcNAc(b1-4)GlcNAc
# In short: as §1
# [19] = molecular target: Gal(b1-4)GlcNAc(b1-3)Gal(b1-4)GlcNAc(b1-3)Gal(b1-4)GlcNAc(b1-3)Gal(b1-4)GlcNAc(b1-3)Gal(b1-4)GlcNAc(b1-2)Man(a1-3)[Gal(b1-4)GlcNAc(b1-3)Gal(b1-4)GlcNAc(b1-3)Gal(b1-4)GlcNAc(b1-3)Gal(b1-4)GlcNAc(b1-3)Gal(b1-4)GlcNAc(b1-2)Man(a1-6)]Man(b1-4)GlcNAc(b1-4)[Fuc(a1-6)]GlcNAc
# In short: as §1
# [20] = molecular target: Gal(b1-4)GlcNAc(b1-3)Gal(b1-4)GlcNAc(b1-3)Gal(b1-4)GlcNAc(b1-3)Gal(b1-4)GlcNAc(b1-3)Gal(b1-4)GlcNAc(b1-2)[Gal(b1-4)GlcNAc(b1-3)Gal(b1-4)GlcNAc(b1-3)Gal(b1-4)GlcNAc(b1-3)Gal(b1-4)GlcNAc(b1-3)Gal(b1-4)GlcNAc(b1-6)]Man(a1-6)[Gal(b1-4)GlcNAc(b1-3)Gal(b1-4)GlcNAc(b1-3)Gal(b1-4)GlcNAc(b1-3)Gal(b1-4)GlcNAc(b1-3)Gal(b1-4)GlcNAc(b1-2)Man(a1-3)]Man(b1-4)GlcNAc(b1-4)[Fuc(a1-6)]GlcNAc
# In short: as §1
# [21] = molecular target: Gal(b1-4)GlcNAc(b1-3)Gal(b1-4)GlcNAc(b1-3)Gal(b1-4)GlcNAc(b1-3)Gal(b1-4)GlcNAc(b1-3)Gal(b1-4)GlcNAc(b1-3)Gal(b1-4)GlcNAc(b1-2)Man(a1-3)[Gal(b1-4)GlcNAc(b1-3)Gal(b1-4)GlcNAc(b1-3)Gal(b1-4)GlcNAc(b1-3)Gal(b1-4)GlcNAc(b1-3)Gal(b1-4)GlcNAc(b1-3)Gal(b1-4)GlcNAc(b1-2)Man(a1-6)]Man(b1-4)GlcNAc(b1-4)GlcNAc
# In short: as §1
# [22] = molecular target: Gal(b1-4)GlcNAc(b1-3)Gal(b1-4)GlcNAc(b1-3)GalNAc
# In short: as §1
# [23] = molecular target: Gal(b1-4)GlcNAc(b1-3)Gal(b1-4)GlcNAc(b1-3)[Gal(b1-4)GlcNAc(b1-3)Gal(b1-4)GlcNAc(b1-6)]GalNAc
# In short: as §1
# [24] = molecular target: Gal(b1-4)GlcNAc(b1-3)Gal(b1-4)GlcNAc(b1-6)[Gal(b1-3)]GalNAc
# In short: as §1
# [25] = molecular target: Gal(b1-4)GlcNAc(b1-3)Gal(b1-4)[Fuc(a1-3)]GlcNAc(b1-3)Gal(b1-4)[Fuc(a1-3)]GlcNAc
# In short: as §1
# [26] = molecular target: Gal(b1-4)GlcNAc(b1-3)GalNAc
# In short: as §1
# [27] = molecular target: Gal(b1-4)GlcNAc(b1-3)[Fuc(a1-3)GlcNAc(b1-6)]Gal(b1-4)Glc
# In short: as §1
# [28] = molecular target: Gal(b1-4)GlcNAc(b1-3)[Gal(b1-4)GlcNAc(b1-6)]Gal(b1-4)GlcNAc
# In short: as §1
# [29] = molecular target: Gal(b1-4)GlcNAc(b1-3)[GlcNAc(b1-6)]Gal(b1-4)GlcNAc
# In short: as §1
# [30] = molecular target: Gal(b1-4)GlcNAc(b1-6)Gal(b1-4)GlcNAc
# In short: as §1
# [31] = molecular target: Gal(b1-4)GlcNAc(b1-6)GalNAc
# In short: as §1
# [32] = molecular target: Gal(b1-4)GlcNAc(b1-6)[Gal(b1-3)]GalNAc
# In short: as §1
# [33] = molecular target: Gal(b1-4)GlcNAc(b1-6)[Gal(b1-4)GlcNAc(b1-3)]GalNAc
# In short: as §1
# [34] = molecular target: Gal(b1-4)GlcNAc6P
# In short: as §1
# [35] = molecular target: Gal(b1-6)Gal
# In short: as §1
# [36] = molecular target: Gal3S(b1-3)GalNAc
# In short: as §1
# [37] = molecular target: Gal3S(b1-3)GlcNAc
# In short: as §1
# [38] = molecular target: Gal3S(b1-3)[Fuc(a1-4)]GlcNAc
# In short: as §1
binder,measurement,setting,value
LF82 (Escherichia coli) (protein) ADWGPCRTASGDPFIFVTSFTKNIQNPTDNVTGQTYPDFYQWALGDKYSGVCECPSPNPTEARPTLYKTESTLAAGHNSTYFKITNNLEVSTRVYIANVGNVQVPFINKSNSQPGRECDQPTFGWTTGSKGQLSLYIAKPFVGEQNIPQTIIVSVFGTKKENVYSSVPISQVLLSGKVTVTQGCELAAGTSLDIDFGEYQAHDFKGRTGQPPQNVQKIQKELTFNCTNISDGVHIYLSLEGTPNAAYPSAISLGNADVGAVIEDGKGNILKPNDSNSLLEMNPGSLYEYVKRKVTTTITAYPVSTTGKLPAAGDYSGVATMHVELDGGGGGGGGGGATTDLGAKGTLKFSLKISQGHHHHHH,glycan array binding signal (z-score),[1],-0.286
same,glycan array binding signal (z-score),[2],-0.501
same,glycan array binding signal (z-score),[3],-0.873
same,glycan array binding signal (z-score),[4],-0.236
same,glycan array binding signal (z-score),[5],-0.376
same,glycan array binding signal (z-score),[6],-1.12
same,glycan array binding signal (z-score),[7],0.758
same,glycan array binding signal (z-score),[8],1.5
same,glycan array binding signal (z-score),[9],-0.833
same,glycan array binding signal (z-score),[10],2.68
same,glycan array binding signal (z-score),[11],1.74
same,glycan array binding signal (z-score),[12],2.16
same,glycan array binding signal (z-score),[13],0.043
same,glycan array binding signal (z-score),[14],1.04
same,glycan array binding signal (z-score),[15],1.07
same,glycan array binding signal (z-score),[16],-0.358
same,glycan array binding signal (z-score),[17],-1.08
same,glycan array binding signal (z-score),[18],-0.283
same,glycan array binding signal (z-score),[19],-1.17
same,glycan array binding signal (z-score),[20],3.2
same,glycan array binding signal (z-score),[21],0.959
same,glycan array binding signal (z-score),[22],-0.979
same,glycan array binding signal (z-score),[23],-0.293
same,glycan array binding signal (z-score),[24],-0.553
same,glycan array binding signal (z-score),[25],-0.067
same,glycan array binding signal (z-score),[26],-0.378
same,glycan array binding signal (z-score),[27],-0.449
same,glycan array binding signal (z-score),[28],-1.27
same,glycan array binding signal (z-score),[29],-0.31
same,glycan array binding signal (z-score),[30],-0.202
same,glycan array binding signal (z-score),[31],1.56
same,glycan array binding signal (z-score),[32],-0.521
same,glycan array binding signal (z-score),[33],-0.454
same,glycan array binding signal (z-score),[34],-0.346
same,glycan array binding signal (z-score),[35],-0.909
same,glycan array binding signal (z-score),[36],0.05
same,glycan array binding signal (z-score),[37],-0.741
same,glycan array binding signal (z-score),[38],-1.08

# Three entries from above in another layout.
binder | measurement | setting | value
LF82 (Escherichia coli) (protein) ADWGPCRTASGDPFIFVTSFTKNIQNPTDNVTGQTYPDFYQWALGDKYSGVCECPSPNPTEARPTLYKTESTLAAGHNSTYFKITNNLEVSTRVYIANVGNVQVPFINKSNSQPGRECDQPTFGWTTGSKGQLSLYIAKPFVGEQNIPQTIIVSVFGTKKENVYSSVPISQVLLSGKVTVTQGCELAAGTSLDIDFGEYQAHDFKGRTGQPPQNVQKIQKELTFNCTNISDGVHIYLSLEGTPNAAYPSAISLGNADVGAVIEDGKGNILKPNDSNSLLEMNPGSLYEYVKRKVTTTITAYPVSTTGKLPAAGDYSGVATMHVELDGGGGGGGGGGATTDLGAKGTLKFSLKISQGHHHHHH | glycan array binding signal (z-score) | [31] | 1.56
same | glycan array binding signal (z-score) | [32] | -0.521
same | glycan array binding signal (z-score) | [33] | -0.454
